PubChem BioAssay AID1159584 | Peter MacCallum Cancer Centre, 2016
Assay: 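Genes whose loss is lethal only together with E-cadherin loss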 (primary screen). Cells: human MCF10A breast epithelial cells, parental and CDH1-null. Reagents: siRNA against human genes. Read-out: 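Cell viability by CellTiter-Glo ATP luminescence, each line scaled to the mean of mock wells across plates, then CDH1-null over parental ratio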. Reading the numbers: CDH1-null / parental viability ratio: higher = CDH1-null cells survive relatively better than parental.
The deposit covers about 18,000 reagents; this is a random part of them. Further read-outs or replicates are left out here. Not stated in the record: the amount of reagent, the time to read-out.

Gene	CDH1-null / parental viability ratio
SAGE1	1.22
GALNTL6	1.06
IGFBP5	1
TMSB4Y	1.21
ZNF462	0.87
GRHL1	1.11
FBN3	0.59
AVL9	1.16
FRMD8	1.34
PIDD1	1.08
TNFRSF10B	1.02
INHBB	1.16
RAB11B	1.05
IK	1.17
PAFAH1B1	1.14
CALB1	1.05
ZNF77	0.98
SETD9	0.99
PKP4	0.93
TAS2R16	0.99
CHRD	0.95
PELI3	0.99
CFAP20	0.86
SEC31B	0.98
MRTO4	1.02
KRTAP6-1	1.28
NR1H4	1.03
FOXG1	0.94
SOX9	1.08
IL6	1.08
SAP30L	0.8
ATL3	0.65
DEFB104A	1.31
FBXO43	1.03

Records above whose gene name starts with A or a:
Gene	CDH1-null / parental viability ratio
AVL9	1.16
ATL3	0.65

Continued:
Gene	CDH1-null / parental viability ratio
NHERF4	0.89
UTY	0.97
LCE3C	1.69
BAIAP2	1.04
MAPK10	0.8
TGFBI	0.93
CYP2F1	0.87
ERMN	1.44
MAPKAPK5	0.81
GPR22	1.4
NOL6	1.47
OR2B6	1.19
ALDOC	1.09
NXPH4	0.74
ITPKA	0.89
TSC22D4	0.81
EXPH5	1.29
DMRT1	1.22
TRIM65	0.77
FABP7	1.15
URM1	0.61
DNMT3L	1.21
NDUFS2	1.05
DROSHA	1.11
OGFOD2	1.08
GRPEL1	0.79
MAD2L1	0.92
BIRC5	1.15
MBD3	1.19
ATP5F1E	1.03
ORC2	1.06
TFEB	1.16
KDM6B	0.91
OR6K6	0.84
